The source of these data is patent US20250136612A1, “4',5'-DIHYDROSPIRO[PIPERIDINE-4,7'-THIENO[2,3-C]PYRAN] DERIVATIVES AS INHIBITORS OF APOL1 AND METHODS OF USING SAME” (VERTEX PHARMACEUTICALS INCORPORATED, priority 2022, published 2025).

By UniProt entry, the sequences of proteins in these tests, tags left out.
UniProt O14791, whole entry S342G/I384M: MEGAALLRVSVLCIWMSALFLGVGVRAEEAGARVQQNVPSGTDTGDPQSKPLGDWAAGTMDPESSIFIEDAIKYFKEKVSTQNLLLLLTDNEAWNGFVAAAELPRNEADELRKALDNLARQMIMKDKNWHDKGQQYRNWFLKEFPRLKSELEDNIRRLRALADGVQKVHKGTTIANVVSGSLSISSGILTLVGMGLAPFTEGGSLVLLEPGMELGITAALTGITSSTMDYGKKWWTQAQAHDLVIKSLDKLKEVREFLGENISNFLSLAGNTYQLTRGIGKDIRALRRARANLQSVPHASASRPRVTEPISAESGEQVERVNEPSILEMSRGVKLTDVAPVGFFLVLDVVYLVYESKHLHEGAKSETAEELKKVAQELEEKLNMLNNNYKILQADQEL

The structures given here were assigned with low confidence; some may be wrong. A value given as a limit tells only on which side of the number the result lay.

The experiment has as its target APOL1 (Homo sapiens, UniProt O14791). Nature of the experiment: MultiTox-Fluor Multiplex Cytotoxicity Assay in tet-inducible APOL1 T-REx-HEK293 cells. The following applies: read-out: IP50 (i.e., IC50 for cell proliferation), 50 ng/mL tet, 24 hours, ratio of dead to live cells. As for the experimental part: The MultiTox-Fluor Multiplex Cytotoxicity Assay is a single-reagent-addition, homogeneous, fluorescence assay that measures the number of live and dead cells simultaneously in culture wells. The assay measures cell viability and cytotoxicity by detecting two distinct protease activities. The live-cell protease activity is restricted to intact viable cells and is measured using a fluorogenic, cell-permeant peptide glycyl-phenylalanylamino fluorocoumarin (GF-AFC) substrate. The substrate enters intact cells, where it is cleaved to generate a fluorescent signal proportional to the number of living cells. […]
Briefly, the tet-inducible transgenic APOL1 T-REx-HEK293 cell lines were incubated with 50 ng/mL tet to induce APOL1 in the presence of 3-(2-(4-fluorophenyl)-1H-indol-3-yl)-N-((3S,4R)-4-hydroxy-2-oxopyrrolidin-3-yl)propenamide at 10.03, 3.24, 1.13, 0.356, 0.129, 0.042, 0.129, 0.0045, 0.0015, 0.0005 μM in duplicate for 24 hours in a humidified 37° C. incubator. […] The plate was read on the EnVision plate reader. A ratio of dead to live cells was used to normalize, and data was imported, analyzed, and fit using Genedata Screener (Basel, Switzerland) software. […]
Assay ready plates from the Global Compound Archive were ordered using template 384_APOL1Cell_DR10n2_50 uM_v3. […]

For `CCc1cc2c(s1)CCO[C@]21CCN[C@H](c2cnn(C)c2)C1`, the IC50 is less than 100 nM.
